Laboratory results as given in the supplement of paper PMC10626197.

Tested on: MCF7
Assay: cell viability relative to DMSO control (raw); higher = more viable cells
Settings: exposure time 72 h
Description: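 MCF7 cells, 1000 cells/well in 384-well plates, treated with 6x6 dose matrices of drug pairs (1:3 serial dilutions, DMSO as lowest dose) for 72 h at 37 °C. Viability read by CellTiter-Glo luminescence, 3 biological replicates. Normalised viability sets 0% at the highest doxorubicin dose and 100% at the 0,0 µM control per combination.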

CC[C@]1(O)C[C@H]2CN(CCc3c([nH]c4ccccc34)[C@@](C(=O)OC)(c3cc4c(cc3OC)N(C=O)[C@H]3[C@@](O)(C(=O)OC)[C@H](OC(C)=O)[C@]5(CC)C=CCN6CC[C@]43[C@@H]65)C2)C1 [Vincristine] + CN1CCN(C2=Nc3cc(Cl)ccc3Nc3ccccc32)CC1 [Clozapine]
cell viability [%]
Settings | drug 2 concentration 0 µM | drug 2 concentration 0.123457 µM | drug 2 concentration 0.37037 µM | drug 2 concentration 1.11111 µM | drug 2 concentration 3.33333 µM | drug 2 concentration 10 µM
drug 1 concentration 0.0037037 µM | 75.9 | 77.6 | 76.4 | 78 | 77.2 | 79.2
drug 1 concentration 0.0111111 µM | 78.5 | 81.5 | 83.5 | 87.1 | 81.4 | 83.6
drug 1 concentration 0.0333333 µM | 78.4 | 84.1 | 82.6 | 83.8 | 88.7 | 78.1
drug 1 concentration 0.1 µM | 77.5 | 80 | 79.2 | 77.2 | 77.5 | 70.2
drug 1 concentration 0.3 µM | 75.8 | 75.9 | 80.6 | 76.6 | 74.8 | 64.3

CC[C@]1(O)C[C@H]2CN(CCc3c([nH]c4ccccc34)[C@@](C(=O)OC)(c3cc4c(cc3OC)N(C=O)[C@H]3[C@@](O)(C(=O)OC)[C@H](OC(C)=O)[C@]5(CC)C=CCN6CC[C@]43[C@@H]65)C2)C1 [Vincristine] + CN1CCN(CCCN2c3ccccc3Sc3ccc(C(F)(F)F)cc32)CC1 [Trifluoperazine 2HCl]
cell viability [%]
Settings | drug 2 concentration 0 µM | drug 2 concentration 0.185185 µM | drug 2 concentration 0.555556 µM | drug 2 concentration 1.66667 µM | drug 2 concentration 5 µM | drug 2 concentration 15 µM
drug 1 concentration 0.0037037 µM | 99.9 | 103 | 101 | 103 | 93.2 | 13.6
drug 1 concentration 0.0111111 µM | 115 | 109 | 111 | 113 | 81.9 | 11
drug 1 concentration 0.0333333 µM | 101 | 99.3 | 97 | 87 | 69.8 | 9.83
drug 1 concentration 0.1 µM | 92 | 90.4 | 86.6 | 80.6 | 67 | 7.19
drug 1 concentration 0.3 µM | 93.4 | 87.8 | 83.5 | 81.8 | 71.8 | 5.69

CC[C@]1(O)C[C@H]2CN(CCc3c([nH]c4ccccc34)[C@@](C(=O)OC)(c3cc4c(cc3OC)N(C=O)[C@H]3[C@@](O)(C(=O)OC)[C@H](OC(C)=O)[C@]5(CC)C=CCN6CC[C@]43[C@@H]65)C2)C1 [Vincristine] + CN1CCN(c2nc(C3=C(c4c[nH]c5ccccc45)C(=O)NC3=O)c3ccccc3n2)CC1 [Sotrastaurin]
cell viability [%]
Settings | drug 2 concentration 0 µM | drug 2 concentration 0.0123457 µM | drug 2 concentration 0.037037 µM | drug 2 concentration 0.111111 µM | drug 2 concentration 0.333333 µM | drug 2 concentration 1 µM
drug 1 concentration 0.0037037 µM | 77.6 | 86.9 | 80.1 | 74 | 76.4 | 81
drug 1 concentration 0.0111111 µM | 83.9 | 78.7 | 77.4 | 82.3 | 76.8 | 77.5
drug 1 concentration 0.0333333 µM | 80.7 | 83.9 | 82.1 | 83.7 | 79.3 | 74.9
drug 1 concentration 0.1 µM | 76.3 | 77.7 | 73.7 | 74.6 | 71 | 69.1
drug 1 concentration 0.3 µM | 80.3 | 80.8 | 77 | 79.2 | 72.7 | 69.4

CC[C@]1(O)C[C@H]2CN(CCc3c([nH]c4ccccc34)[C@@](C(=O)OC)(c3cc4c(cc3OC)N(C=O)[C@H]3[C@@](O)(C(=O)OC)[C@H](OC(C)=O)[C@]5(CC)C=CCN6CC[C@]43[C@@H]65)C2)C1 [Vincristine] + CN(C)C(=O)C(CCN1CCC(O)(c2ccc(Cl)cc2)CC1)(c1ccccc1)c1ccccc1 [Loperamide (hydrochloride)]
cell viability [%]
Settings | drug 2 concentration 0 µM | drug 2 concentration 0.185185 µM | drug 2 concentration 0.555556 µM | drug 2 concentration 1.66667 µM | drug 2 concentration 5 µM | drug 2 concentration 15 µM
drug 1 concentration 0.0037037 µM | 108 | 109 | 108 | 110 | 112 | 72.6
drug 1 concentration 0.0111111 µM | 110 | 117 | 117 | 116 | 101 | 78
drug 1 concentration 0.0333333 µM | 98.2 | 98.2 | 100 | 97.3 | 87.5 | 70.4
drug 1 concentration 0.1 µM | 89.6 | 89.7 | 95.2 | 92.1 | 87.5 | 67.8
drug 1 concentration 0.3 µM | 91.8 | 91.4 | 90.2 | 91 | 78.7 | 58.1

CC[C@]1(O)C[C@H]2CN(CCc3c([nH]c4ccccc34)[C@@](C(=O)OC)(c3cc4c(cc3OC)N(C=O)[C@H]3[C@@](O)(C(=O)OC)[C@H](OC(C)=O)[C@]5(CC)C=CCN6CC[C@]43[C@@H]65)C2)C1 [Vincristine] + CN(C)CCOc1ccc(/C(=C(/CCCl)c2ccccc2)c2ccccc2)cc1 [Toremifene (citrate)]
cell viability [%]
Settings | drug 2 concentration 0 µM | drug 2 concentration 0.432099 µM | drug 2 concentration 1.2963 µM | drug 2 concentration 3.88889 µM | drug 2 concentration 11.6667 µM | drug 2 concentration 35 µM
drug 1 concentration 0.0037037 µM | 96.2 | 93.6 | 88.5 | 85.6 | 41.9 | 0.662
drug 1 concentration 0.0111111 µM | 97.9 | 101 | 92.4 | 85.8 | 33.4 | 0.919
drug 1 concentration 0.0333333 µM | 105 | 107 | 99.9 | 71 | 37.8 | 0.978
drug 1 concentration 0.1 µM | 88.1 | 88.6 | 83.6 | 73.7 | 3.02 | 0.552
drug 1 concentration 0.3 µM | 96 | 90.3 | 87.1 | 74 | 31.6 | 0.81

Where a name gives a salt, the structure may show the parent alone. Several reference drugs read as weak here; read low effects with care.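 Drug pairs were tested on MCF7 breast cancer cells in a dose grid. On every plate, solvent-only DMSO wells served as the untreated reference, and a doxorubicin series served as the total-kill control. No hit threshold applies to the viability readings.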
